Here are results for 41 compounds from PubChem BioAssay AID2685 (National Center for Advancing Translational Sciences (NCATS), 2010).

A short description of this test: qHTS Assay for Lipid Storage Modulators in Drosophila S3 Cells.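 For cell number change: cells counted by Cell Tracker Red CMTPX staining in the red channel.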 Conditions: BODIPY lipid droplet fluorescence, 18-24 h; for cell number change: measured here: cell count max response, cells fed with added oleic acid. The gist of the method: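 Laser-scanning cytometry quantifies lipid droplet accumulation (500–530 nm total intensity; droplet/cell object ratio) in oleic acid-fed (400 uM added) Drosophila S3 cells treated with a concentration series. 20 uM Triacsin C defined 100% inhibition.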

[1] abbreviates: measured here: cell number channel AC50, cells fed with added oleic acid.
Where [2] appears, read: measured here: lipid fluorescence (Fed channel) AC50, cells fed with added oleic acid.

The other results are listed elsewhere or left out. The main result of the screen is listed elsewhere. These columns were measured beside it and carry no call. Compounds called inactive in the main read-out are mostly missing here. Potencies come from curve fits of mixed quality, noted in brackets.

Turning to `Clc1ccc(-c2nnnn2-c2ccc(Cl)c(Cl)c2)cc1Cl`, the cell number change amounted to 91.1%. Besides, the AC50 under setting [1] was 4.61 µM [rising, full curve]. For the same compound, under setting [2], the half-maximal activity concentration (AC50) is 0.58 µM [rising, single point].
With `COc1ccc(NC(=O)CN(C)C(=O)c2ccc3[nH]c4c(c3c2)CC(C)CC4)cc1` (centres undefined), the concentration at half-maximal activity (AC50) under setting [1] was 4.61 µM [rising, single point].
As for `Cc1ccc2c(c1)C(c1ccccc1)N(C(=O)c1ccc(Br)cc1)CC(=O)N2` (centres undefined), the cell number change is -1.5%. The concentration at half-maximal activity (AC50) under setting [2] was 0.13 µM [rising, full curve, poor fit].
In the case of `COCCC(=O)N(Cc1ccc2c(c1)OCO2)C(C(=O)NC1CCCCC1)c1ccncc1` (centres undefined), the cell number change turned out to be 18.8%. The concentration at half-maximal activity (AC50) under setting [2] was 7.31 µM [rising, partial curve].
With `COc1cc2[nH]c(=O)n(CCCC(=O)NC3CCCCC3)c(=O)c2cc1OC`, the cell number change is 8.55%. In addition, under setting [2], the AC50 was 0.651 µM [rising, single point].
As to `CCn1c(SCC(=O)N2CCCCC2)nc2c(c1=O)SC(C)C2` (centres undefined), the half-maximal activity concentration (AC50) under setting [2] is 6.51 µM [rising, single point].
In the case of `Cc1ccc(SCc2c(C(=O)N/N=C/c3cccnc3)nnn2-c2nonc2N)cc1`, the cell number change is -2.39%. Under setting [2], the AC50 is 4.11 µM [falling, single point].
Consider `O=C(COC(=O)c1cc(Br)ccc1Cl)NC1CCCC1`, for which the cell number change is 55.6%.
As for `CSc1cccc(NC(=O)C2CCCN2S(=O)(=O)c2ccc(Br)s2)c1` (centres undefined), the cell number change came to 44.2%. Also, the AC50 under setting [1] was 8.2 µM [rising, partial curve]. In addition, under setting [2], the AC50 is 29.1 µM [rising, single point].
On to `CCN(CC)c1ccc(/C=c2\sc3nc4ccccc4n3c2=O)c(O)c1`, for which the cell number change is -6.37%. Besides, the AC50 under setting [2] is 29.1 µM [falling, single point].
Consider `COc1cc(N/N=C(\C)c2ccc(N)cc2)nc(-c2ccccc2)n1`, for which the cell number change came out at 11.9%. The half-maximal activity concentration (AC50) under setting [1] was 0.411 µM [falling, single point].
As to `O=C(O)c1cccc(S(=O)(=O)Nc2cccc(S(=O)(=O)N3CCCC3)c2)c1`, the cell number change was -0.752%.
Regarding `CCCn1nc(NC(=O)C2CCCO2)c2cc3cc(C)ccc3nc21` (centres undefined), the cell number change was 1.44%. Also, the concentration at half-maximal activity (AC50) under setting [1] is 0.206 µM [rising, full curve]. For the same compound, the AC50 under setting [2] was 0.517 µM [rising, full curve].
Consider `Cc1ccc2[nH]c(=O)c(CN(Cc3cccnc3)Cc3nnnn3CCN3CCOCC3)cc2c1`, for which the AC50 was 6.51 µM [rising, single point] under setting [1] and 5.8 µM [falling, single point] under setting [2].
As to `Cn1c(SCc2cccc(Br)c2)nc2ccccc2c1=O`, the cell number change is -22.8%. Also, under setting [2], the AC50 is 29.1 µM [falling, single point].
Turning to `Cc1cccc(N(Cc2cc3ccc(C)cc3[nH]c2=O)S(=O)(=O)c2ccccc2)c1`, the cell number change was -5.34%. Moreover, the AC50 under setting [2] was 29.1 µM [rising, single point].
On to `Cc1cccc2nc(C(=O)Nc3cc(Cl)ccc3-n3cncn3)cn12`, for which the cell number change was -4.37%. Further, the concentration at half-maximal activity (AC50) under setting [2] was 32.6 µM [falling, single point].
Consider `O=C(NC1CCCCC1)C(c1ccccc1F)N(C(=O)c1csnn1)C1CCCC1` (centres undefined), for which the cell number change is -20%. The AC50 under setting [2] is 0.206 µM [rising, single point].
Turning to `O=C(O)Cc1ccc(NC(=O)Nc2cccc(Cl)c2)cc1`, the cell number change turned out to be 6.49%.
Turning to `CC(=O)Nc1cccc(C(=O)OCC(=O)NNC(=O)c2cccs2)c1`, the cell number change came to 8.5%.
Regarding `CCn1c(SCC(=O)Nc2nc3ccccc3s2)nnc1-c1ccc(OC)cc1`, the cell number change is -7.51%. Also, the AC50 under setting [2] is 6.51 µM [falling, partial curve].
Regarding `Cc1cc(S(=O)(=O)N2CCOCC2)ccc1OCC(=O)Nc1ccccc1F`, the cell number change amounted to 11.5%. Under setting [1], the AC50 was 0.00517 µM [rising, full curve, poor fit].
Consider `c1cc(-c2noc(CC3CCCCC3)n2)ccn1`, for which the cell number change is -17.6%.
The same measure, in the same setting: the value for `Cc1cccc(N=C2NC(=O)CS2)c1` was -0.491%.
Consider `O=C(N/N=C/c1ccc2nccnc2c1)c1ccccc1O`, for which the cell number change was -18.7%. For the same compound, the concentration at half-maximal activity (AC50) under setting [2] was 32.6 µM [falling, single point].
In the case of `Clc1cccc(CSc2nnc(-c3ccccn3)n2Cc2ccco2)c1`, the cell number change was 108%. Besides, the concentration at half-maximal activity (AC50) under setting [1] was 29.1 µM [rising, single point]. Also, the AC50 under setting [2] is 18.4 µM [rising, partial curve].
In the case of `COc1ccc(Cn2nnc(C(=O)Nc3ccc4c(c3)OCCO4)c2N)cc1Br`, the cell number change turned out to be 31.9%. For the same compound, the half-maximal activity concentration (AC50) under setting [1] was 16.4 µM [rising, single point]. Further, the AC50 under setting [2] was 29.1 µM [rising, single point].
Regarding `CCC(C)NCC(=O)Nc1ccc(S(N)(=O)=O)cc1` (centres undefined), under setting [2], the AC50 is 0.651 µM [rising, single point].
For the compound `Cc1ccc(C(=O)COC(=O)c2cn(-c3ccccc3)nc2-c2ccccc2)cc1[N+](=O)[O-]`, the cell number change stood at 1.69%. Also, the concentration at half-maximal activity (AC50) under setting [2] was 3.66 µM [rising, full curve, poor fit].
With `COc1ccc(S(=O)(=O)N2CCC(N3CCCC3)CC2)cc1`, the cell number change amounted to 13.7%.
On to `CC(=O)NC12CC3CC(C1)CC(C(=O)N1CCN(S(=O)(=O)c4cccc(C(F)(F)F)c4)CC1)(C3)C2`, for which the cell number change came to 38%. For the same compound, the AC50 under setting [1] is 2.06 µM [rising, partial curve].
`Cc1ccc2c(c1)nnn2C1CCN(S(C)(=O)=O)CC1`: the AC50 is 4.11 µM [falling, single point] under setting [1] and 7.31 µM [falling, partial curve] under setting [2].
For `Cc1ccc(C(=O)NC2CCN(CC(=O)NC3CCC(C)CC3)CC2)cc1` (centres undefined), the cell number change was -3.15%. In addition, under setting [2], the AC50 was 6.51 µM [rising, single point].
In the case of `CCC(CC)C(=O)Nc1nnc(S(=O)(=O)N2c3ccccc3CC2C)s1` (centres undefined), the cell number change was -21.3%. Also, under setting [2], the half-maximal activity concentration (AC50) was 8.2 µM [falling, partial curve].
As for `COc1ccc(NC(=O)Nc2sc(NS(=O)(=O)c3ccccc3)nc2C)cc1`, the half-maximal activity concentration (AC50) was 0.58 µM [falling, full curve] under setting [1] and 2.31 µM [falling, partial curve] under setting [2].
As to `CC(C)OC(=O)c1ccc(NC(=O)c2cncc(Br)c2)cc1`, the cell number change was -24.3%.
Consider `CN(C)C(=O)CSc1nnc(Cc2ccccc2)n1CC1CCCO1` (centres undefined), for which the cell number change was -22.9%. The concentration at half-maximal activity (AC50) under setting [2] is 1.64 µM [falling, full curve, poor fit].
With `Cc1ccc2nc(SCC(=O)Nc3ccc(F)cc3)nc(=O)n2c1`, the cell number change amounted to 0.402%.
Take `CCOc1ccc(NC(=O)c2ccc(NC(=S)NC3CCCCC3)cc2)cc1`: the cell number change came to 1.91%.
On the same count and under the same terms, the value for `Cc1ccc2nc3c(cc(C(=O)NCCN4CCOCC4)c(=N)n3CCCN3CCOCC3)c(=O)n2c1` was 14.1%.
As for `COc1ccc2[nH]c(C(=O)NCc3ccc4c(c3)OCO4)cc2c1`, the cell number change was 1.22%. Further, the half-maximal activity concentration (AC50) under setting [1] is 0.164 µM [rising, full curve, poor fit]. For the same compound, the AC50 under setting [2] is 0.291 µM [rising, full curve].

Usually AC50 stands for the concentration at which the activity in the assay is half-maximal. Read a high AC50 as weaker potency.
